Measured values as given in patent publication US20020061902A1, “Treatment method” (SCHERING CORPORATION, priority 2000, published 2002).

Tested on: eosinophils

Clc1ccc2c(c1)CCc1cccnc1C2=C1CCNCC1 [Desloratadine, desloratadine]
PMA-stimulated superoxide generation (10 μM desloratadine, 10 ng/mL PMA): attenuated | spontaneous superoxide generation (desloratadine 0.1 to 10 μM, concentration-dependent): attenuated
